# Data: paper PMC11649789
# Results are given in words; binding and its absence hold for the method and conditions named. In cells and extracts the contact can be indirect. A result given as binding can be weak or reduced; the word gives no strength.
# B1: PACT, protein activator of PKR, endogenous (protein, UniProt O75569 1-313)
# chain: MSQSRHRAEAPPLEREDSGTFSLGKMITAKPGKTPIQVLHEYGMKTKNIPVYECERSDVQIHVPTFTFRVTVGDITCTGEGTSKKLAKHRAAEAAINILKANASICFAVPDPLMPDPSKQPKNQLNPIGSLQELAIHHGWRLPEYTLSQEGGPAHKREYTTICRLESFMETGKGASKKQAKRNAAEKFLAKFSNISPENHISLTNVVGHSLGCTWHSLRNSPGEKINLLKRSLLSIPNTDYIQLLSEIAKEQGFNITYLDIDELSANGQYQCLAELSTSPITVCHGSGISCGNAQSDAAHNALQYLKIIAERK
# Target: FLAG-ALIX V domain
# Experiment: co-IP; HEK293T expressing FLAG, FLAG-ALIX or FLAG-tagged ALIX mutants, with Myc-PKR (Fig. 5C) or with GFP, GFP-Gal3 or GFP-Gal3 R186S (Fig. 6F); untreated or 1 mM LLOMe 30 min; NP-40 lysate, anti-FLAG antibody, Dynabeads; immunoblot (Fig. 5A, 5C, 6F)
binder,measurement,value
B1,binding,binds
